Results reported in doi:10.1101/2022.10.10.511527.
Results are given in words; binding and its absence hold for the method and conditions named. In cells and extracts the contact can be indirect. Here binding means that the protein was enriched with, or labelled near, the bait; the list need not be complete. For some assays here: Tags and fused reporters may be left off the sequences shown.

Amino acid sequences for entries named in this document (tags omitted).
UniProt Q9D4H8: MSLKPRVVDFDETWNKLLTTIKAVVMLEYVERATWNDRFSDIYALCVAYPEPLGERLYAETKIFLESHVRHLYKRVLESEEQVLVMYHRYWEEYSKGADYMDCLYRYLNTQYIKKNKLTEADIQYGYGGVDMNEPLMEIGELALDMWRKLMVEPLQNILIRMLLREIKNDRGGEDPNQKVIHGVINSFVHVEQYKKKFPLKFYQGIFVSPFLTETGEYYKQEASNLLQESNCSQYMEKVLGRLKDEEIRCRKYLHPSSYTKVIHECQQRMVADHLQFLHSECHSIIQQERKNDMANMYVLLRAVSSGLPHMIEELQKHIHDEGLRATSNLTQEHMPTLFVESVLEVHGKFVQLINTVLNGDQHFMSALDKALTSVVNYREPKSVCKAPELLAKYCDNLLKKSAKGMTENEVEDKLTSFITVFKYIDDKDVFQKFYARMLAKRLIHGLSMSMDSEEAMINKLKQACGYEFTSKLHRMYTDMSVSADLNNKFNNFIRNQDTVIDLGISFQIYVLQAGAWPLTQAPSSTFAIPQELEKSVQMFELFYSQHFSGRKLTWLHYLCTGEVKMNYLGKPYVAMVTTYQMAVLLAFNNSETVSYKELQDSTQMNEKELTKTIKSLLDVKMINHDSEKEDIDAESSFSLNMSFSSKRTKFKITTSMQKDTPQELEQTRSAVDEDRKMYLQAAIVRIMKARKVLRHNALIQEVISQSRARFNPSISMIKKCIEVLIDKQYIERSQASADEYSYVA

How the values were obtained:
[1] = target: T1, HA/FLAG-PRAMEL7ΔN, one transgene copy in the Rosa26 locus of mouse ESCs (ESC+H/F-Pramel7ΔN) (mouse) (UniProt Q810Y8); assay: affinity purification with mass spectrometry
T1 sequence: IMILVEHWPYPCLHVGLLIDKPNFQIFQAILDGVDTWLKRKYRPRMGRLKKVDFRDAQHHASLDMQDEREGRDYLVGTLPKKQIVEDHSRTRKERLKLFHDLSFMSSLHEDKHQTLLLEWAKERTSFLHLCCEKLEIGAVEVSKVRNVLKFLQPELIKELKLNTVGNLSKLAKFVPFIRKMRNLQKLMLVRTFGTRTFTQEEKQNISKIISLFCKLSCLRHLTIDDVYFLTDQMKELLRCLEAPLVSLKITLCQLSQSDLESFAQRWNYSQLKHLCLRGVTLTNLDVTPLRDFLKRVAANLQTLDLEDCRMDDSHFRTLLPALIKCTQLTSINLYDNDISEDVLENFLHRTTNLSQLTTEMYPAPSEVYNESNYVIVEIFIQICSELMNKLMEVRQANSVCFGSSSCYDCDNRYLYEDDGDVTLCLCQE

[2] = target: Cullin2 (CUL2), endogenous in mouse ESCs (mouse (endogenous in E14 ESCs)) (UniProt Q9D4H8); assay: affinity purification with mass spectrometry

B1: ALDH2, endogenous in mouse ESCs (protein, UniProt P47738 20-519)
chain: SAAATSAVPAPNHQPEVFCNQIFINNEWHDAVSRKTFPTVNPSTGEVICQVAEGNKEDVDKAVKAARAAFQLGSPWRRMDASDRGRLLYRLADLIERDRTYLAALETLDNGKPYVISYLVDLDMVLKCLRYYAGWADKYHGKTIPIDGDFFSYTRHEPVGVCGQIIPWNFPLLMQAWKLGPALATGNVVVMKVAEQTPLTALYVANLIKEAGFPPGVVNIVPGFGPTAGAAIASHEGVDKVAFTGSTEVGHLIQVAAGSSNLKRVTLELGGKSPNIIMSDADMDWAVEQAHFALFFNQGQCCCAGSRTFVQENVYDEFVERSVARAKSRVVGNPFDSRTEQGPQVDETQFKKILGYIKSGQQEGAKLLCGGGAAADRGYFIQPTVFGDVKDGMTIAKEEIFGPVMQILKFKTIEEVVGRANDSKYGLAAAVFTKDLDKANYLSQALQAGTVWINCYDVFGAQSPFGGYKMSGSGRELGEYGLQAYTEVKTVTVKVPQKNS
In the case of B1, the binding [1] is reported as “binds” and the binding [2] is reported as “binds”.

B2: NOP2, endogenous in mouse ESCs (protein, UniProt Q922K7 1-793)
chain: MGRKLDPTKKEKRGPGRKARKQKGAETELVRFLPAAGDENSKRLSSRARKRAAKRRAGSVDVPKPNKSPGIKTLPGELSKGAVQARGKKRPAPIQNSDGDEEEDSGEDDVVTQGDLWGSEDSDEDMVDDYGAASNSEDEEEKLLPIERAALKQKAQDATAGVLWNEEDTDEDEDDDGVSPESHPRKDDKAEGDLQINVEDEEAFVLPPAGETDQDGQAPDLQRVHKRIQDIVGVLRDFGAQREEGRSRAEYLSRLQKDLATYYSYGDFLLSKLMELFPLSELIEFLEANEVPRPITLRTNTLKTRRRDLAQLLINRGVNLDPLGKWSKSGLVVYDSSVPIGATPEYLAGHYMLQGASSMLPVMALAPQEHERILDMCCAPGGKTSYIAQLMKNTGVILANDANADRLKSVVGNLHRLGVTNTIISHYDGRQFPKVVGGFDRVLLDAPCSGTGVISKDPAVKTNKDEKDIQRCAHLQKELLLSAIDSVNAASKTGGYLVYCTCSITVEENEWVVDYALKKRNVRLVPTGLDFGQEGFTRFQARRFHPTLRSTRRFYPHTHNMDGFFIAKFKKFSNSIPQPHAGNSAAATPTEPDLKDQVTPKSENGSQPTKKARGAVKAKQQLLRQPHSKKPFQKLNGIAKGPGLSTEPSVPDAQVSTRPSQSAGNADVNSKRKRSEKLKQRGPKWKPSKEAAVPKPSAPSRVEDSGTPVPTPSEIRAAPRPKDCAPSLGKAKKKQKGKQQLAQQPANGAAPLKEDAVSKGPSAPFVSPHSSTRPPPAKRRKSMTKGNSQPLLS
In the case of B2, the binding [1] is reported as “binds” and the binding [2] is reported as “binds”.

B3: SND1, endogenous in mouse ESCs (protein, UniProt Q78PY7 1-910)
chain: MASSAQSSGSSGGPAVPTVQRGIVKMVLSGCAIIVRGQPRGGPPPERQINLSNIRAGNLARRAAATQPDGKDTPDEPWAFPAREFLRKKLIGKEVCFTIENKTPQGREYGMIYLGKDTNGENIAESLVAEGLATRREGMRANNPEQNRLSECEEQAKASKKGMWSEGNGSHTIRDLKYTIENPRHFVDSHHQKPVNAIIEHVRDGSVVRALLLPGHHLVTVMLSGIKCPTFRRETDGSETPEPFAAEAKFFTESRLLQRDVQIILESCHNQNLLGTILHPNGNITELLLKEGFARCVDWSIAVYTRGAEKLRAAERFAKERRLRIWRDYVPPTANLDQKDKQFVAKVMQVLNADAIVVKLNSGDYKTIHLSSIRPPRLEGDNIQDKNKKLRPLYDIPYMFEAREFLRKKLIGKKVNVTVDYIRPASPATETVPAFSERTCATVTIGGINIAEALVSKGLATVIRYRQDDDQRSSHYDELLAAEARAIKNGKGLHSKKEVPIHRVADISGDTQKAKQFLPFLQRAGRSEAVVEYVFSGSRLKLYLPKETCLITFLLAGIECPRGARNLPGLVQEGEPFSEEATLFTKELVLQREVEVEVESMDKAGNFIGWLHMDGANLSVLLVEQALSKVHFTAERSAYYKPLLSAEEAAKQRKEKVWAHYEERPVEEVMPVLEEKERSASYKPVFVTEITDDLHFYVQDVETGTQLEKLMENMRNDISSHPPVEGSYAPRRGEFCIAKFVDGEWYRARVEKVESPAKVHVFYIDYGNREILPSTRLGTLPPAFSTRVLPAQATEYAFAFIQVPQDEDARTDAVDSVVRDIQNTQCLLNVEHLSASCPHVTLQFADSKGDVGLGLVKEGLVMVEVRKEKQFQKVITEYLNAQESAKSARLNLWRYGDFRADDADEFGYSR
B3 was tested, and the binding [1] was “binds” and the binding [2] was “binds”.

B4: UHRF1, endogenous in mouse ESCs (protein, UniProt Q8VDF2 1-782)
chain: MWIQVRTMDGKETHTVNSLSRLTKVQELRKKIEEVFHVEPQLQRLFYRGKQMEDGHTLFDYDVRLNDTIQLLVRQSLALPLSTKERDSELSDSDSGYGVGHSESDKSSTHGEGAAEADDKTVWEDTDLGLYKVNEYVDVRDNIFGAWFEAQVVQVQKRALSEDEPCSSSAVKTSEDDIMYHVKYDDYPEHGVDIVKAKNVRARARTVIPWENLEVGQVVMANYNVDYPRKRGFWYDVEICRKRQTRTARELYGNIRLLNDSQLNNCRIMFVDEVLMIELPKERRPLIASPSQPPPALRNTGKSGPSCRFCKDDENKPCRKCACHVCGGREAPEKQLLCDECDMAFHLYCLKPPLTSVPPEPEWYCPSCRTDSSEVVQAGEKLKESKKKAKMASATSSSRRDWGKGMACVGRTTECTIVPANHFGPIPGVPVGTMWRFRVQVSESGVHRPHVAGIHGRSNDGAYSLVLAGGYEDDVDNGNYFTYTGSGGRDLSGNKRTAGQSSDQKLTNNNRALALNCHSPINEKGAEAEDWRQGKPVRVVRNMKGGKHSKYAPAEGNRYDGIYKVVKYWPERGKSGFLVWRYLLRRDDTEPEPWTREGKDRTRQLGLTMQYPEGYLEALANKEKSRKRPAKALEQGPSSSKTGKSKQKSTGPTLSSPRASKKSKLEPYTLSEQQANLIKEDKGNAKLWDDVLTSLQDGPYQIFLSKVKEAFQCICCQELVFRPVTTVCQHNVCKDCLDRSFRAQVFSCPACRFELDHSSPTRVNQPLQTILNQLFPGYGSGR
B4 was tested, and the binding [1] was “binds” and the binding [2] was “binds”.
